In the supplement of paper PMC3334620:
The full ranking holds about 33,000 sequences; the median of “E-score (-0.5 to 0.5)” is about -0.0034, and the highest 2% start at about 0.25. This is one part of the list.

biological target: T1, Yap3 (UniProt P38749); assay: PBM E-score (8-mer binding enrichment) (E-score (-0.5 to 0.5)); higher = stronger / more preferred TF binding; settings: protein concentration: 100 nM; construct: GST-full length
T1 sequence: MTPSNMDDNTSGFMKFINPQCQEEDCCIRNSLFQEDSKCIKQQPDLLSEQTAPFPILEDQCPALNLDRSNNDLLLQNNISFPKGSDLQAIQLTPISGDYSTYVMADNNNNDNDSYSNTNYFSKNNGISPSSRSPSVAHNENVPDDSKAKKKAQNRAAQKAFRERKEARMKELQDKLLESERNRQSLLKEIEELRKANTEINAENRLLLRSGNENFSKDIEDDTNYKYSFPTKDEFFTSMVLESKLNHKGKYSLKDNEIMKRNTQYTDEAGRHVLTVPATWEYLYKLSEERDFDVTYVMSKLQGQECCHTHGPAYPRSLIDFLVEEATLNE
How it was run: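 Each ungapped eight-base word and its reverse complement, pooled, received an E-score from the Universal PBM Analysis Suite. Underlying scans, normalised with masliner, recorded fluorescent anti-GST bound to GST-tagged yeast transcription factors. These were applied at about 100-200 nM to universal all-10-mer Agilent arrays double-stranded by primer extension.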

Sequence | PBM E-score
CCCCTGGA | -0.282
GCGAATCA | 0.173
CCAAGGCC | -0.317
ATGAGTGG | -0.0814
GCTTAGAC | -0.055
CCTGGTAA | 0.0581
CCTAGTAG | -0.127
ATTGATAA | 0.119
CCCGACGA | 0.0141
AGCACAAA | 0.141
GAGTTTTA | 0.0827
CACCATGC | -0.106
GTCCCGGA | -0.103
CAAGACGG | -0.147
ACCGAATA | 0.119
ACCATCGT | -0.144
CAGATGGG | -0.188
GCATGAAC | 0.0703
GCGGAATA | 0.0469
CGGCGTTC | -0.168
CGTAGCAA | 0.0639
GAGGCTTA | -0.0282

Sequence | PBM E-score
CGCAGTCC | -0.217
CTTCCAAC | -0.134
GTGGCTTA | -0.0122
CGGTAGGC | -0.171
TTTTAAAA | 0.183
AGGGGAGA | -0.276
AGTGTACA | 0.106
TCACGCGA | 0.0612
AACGGGAG | 0.00803
GCACGCAC | -0.226
ACACATAA | 0.299
CCCCTTAA | -0.273
TCTCGGCA | -0.0847
ACACGTAG | -0.149
ACCTCACT | -0.0552
CCTCGAGA | 0.103
GCGGGACC | -0.226
GAGCTTTA | -0.0664
TAGACGGA | 0.113
AAGCTGCT | 0.0356
GATCACGC | 0.192
ACGGAGGC | -0.232

Two records drawn at random from the list so far, as already listed:
Sequence | PBM E-score
CCTCGAGA | 0.103
AACGGGAG | 0.00803

(further entries)

Sequence | PBM E-score
GGAGTTGA | -0.068
ACACTACA | 0.113
TCCCGCAA | 0.0613
CGTGACGA | 0.0738
ACTCTCCG | -0.175
TATTACCA | 0.196
CCAGTAGG | -0.0442
CTCCTAGC | -0.157
ACGAATAG | 0.0225
CCCCCCTC | -0.432
TATAGTAA | 0.27
TAGTACGA | 0.092
GACAACAC | 0.00619
ACCAATTA | 0.274
CGAGTCGC | -0.232
AAGCGCAT | 0.139
ACTCTTAT | 0.238
GCGGTAGA | 0.00783
CGCATACA | 0.036
TATACAGA | 0.182
GACCGTTA | 0.148
CGCGTCTC | 0.0723

Sequence | PBM E-score
TCAGGACA | 0.027
CATCGCAC | -0.0244
CAGTACCC | -0.0866
ACCCACTG | -0.0269
ACCTAAAA | 0.0796
GGCGTTCA | -0.151
GTTTTTAA | 0.161
AGCTCAAC | -0.122
AGTGACTG | -0.0201
ACCCCTCG | -0.205
GCTCCACC | -0.326
ATCGCCGG | -0.0339
ACCGTCGG | -0.163
AACCCATA | 0.169
TCTCTGAA | -0.0643
AGTATCCC | 0.0469
AACATTGT | 0.143
GCTCTACC | -0.182
AAAAAGAA | 0.195
AACTCGGT | 0.0084
